Data set [1] can be described thus: clinical. As to conditions: both, human, in vivo.
The conditions of data set [2]: human, in vivo.

Take `C[N+]1(C)CCC(OC(=O)C(O)(c2ccccc2)C2CCCC2)C1.[Br-]` (stereo not drawn) [glycopyrrolate, 3-[(cyclopentylhydroxyphenylacetyl)oxy]-1,1-dimethylpyrrolidinium bromide]: the AUC(0-t) – broadly, exposure summed from dosing to a finite time, without extrapolation to infinity – in data set [1] (AUC0-24 hrs Group A fasted) was 1.74 ng·h/mL; in data set [1] (AUC0-24 hrs Group B fed) it was 0.383 ng·h/mL; in data set [1] (AUC0-24 hrs LS Mean Group A fasted), 1.84 ng·h/mL; in data set [1] (AUC0-24 hrs LS Mean Group B fed), 0.486 ng·h/mL. Besides, the AUC(0-inf) (in general, total exposure, with the tail of the curve extrapolated) in data set [1] (AUC0-∞ Group A fasted) was determined as 1.81 ng·h/mL; in data set [1] (AUC0-∞ Group B fed) it was 0.459 ng·h/mL; in data set [1] (AUC0-∞ LS Mean Group A fasted), 1.94 ng·h/mL; in data set [1] (AUC0-∞ LS Mean Group B fed), 0.603 ng·h/mL. Also, the Cmax – broadly, the maximum level reached in the sampled fluid or tissue – turned out to be 0.318 ± 0.19 ng/mL in data set [1] (Cmax Group A fasted), 0.0838 ± 0.0813 ng/mL in data set [1] (Cmax Group B fed), 0.337 ng/mL in data set [1] (Cmax LS Mean Group A fasted) and 0.102 ng/mL in data set [1] (Cmax LS Mean Group B fed). Also, the Tmax (usually the time at which the peak concentration occurs) was found to be 3.1 h in data set [1] (Tmax Group A fasted), 2.6 h in data set [1] (Tmax Group B fed), 3.15 h in data set [1] (Tmax LS Mean Group A fasted) and 2.65 h in data set [1] (Tmax LS Mean Group B fed). Further, the “Cmax Group A fasted” value in data set [2] (both, po, 2 mg) worked out at 0.1560 ng/mL. Moreover, the “Tmax Group B fed” value in data set [2] (both, po, 2 mg) came to 1.500 h. In addition, the “Ln AUC0-24 hrs LS Mean Group A fasted” value in data set [2] worked out at 0.417. For the same compound, in data set [2], the “Ln AUC0-24 hrs LS Mean Group B fed” value is listed as −0.9878. Besides, the “Ln AUC0-∞ LS Mean Group A fasted” value in data set [2] is 0.4741. Also, in data set [2], the “Ln AUC0-∞ LS Mean Group B fed” value is on record as −0.7668. The “Ln Cmax LS Mean Group A fasted” value in data set [2] is on record as 1.267. The “Ln Cmax LS Mean Group B fed” value in data set [2] is reported as −2.604.

For the origin of these results see US7638552B1 (Sciele Pharma, Inc., priority 2003, dated 2009).
